Measurements: PubChem BioAssay AID1487 (National Center for Advancing Translational Sciences (NCATS), 2009)
Hit rate of the full screen: of about 200,000 compounds, about 25 (0.01%) were called active. Inconclusive results, whose numbers are uncertain, are shown with a selection of clear calls. The call rests on the fitted dose curve; in most records, active means well fitted inhibition curve with a large enough effect in the signal ratio, with a control signal flat (not every such curve was filed as active); inconclusive means small, poorly fitted or top-dose-only effect, or effect the other way, or a change in a side signal; inactive means flat fitted curve, though single readings scatter; the % refers to the signal ratio. Potencies beside an inconclusive call are fits to weak or partial responses and may not hold up.

Assay: qHTS Assay for Modulators of Lamin A Splicing
Conditions: HeLa LMNA splicing GFP/RFP minigene ratio, 48 h; ratio change, negative = inhibition: at 46.1 µM (top of the series) unless noted
In short: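 Read-out is the ratio of GFP to DsRed2 object intensity, acquired by 488 nm laser-scanning cytometry on HeLa lamin A-EGFP minigene reporter cells. Compound incubation 48 hrs at 37 °C in Opti-MEM with 2% FBS; DMSO 0.5% final.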
On the % scale 0 is the no-effect control and ±100 the full control effect; potency means the concentration at half of the fitted maximal effect.

| Structure (SMILES) | ratio change, negative = inhibition | Potency |
| --- | --- | --- |
| CC1CCCCC1NC(=O)COC(=O)c1ccccn1 (stereo not drawn) | inconclusive: -5.61% | – |
| CCN(CC)CCc1nc(-c2ccccc2)no1 | inconclusive: -27.2% | – |
| Brc1cccc2sc(N3CCN(c4ccccc4)CC3)nc12 | inconclusive: -23.8% [at 46 µM] | – |
| CCCCOc1ccc2ccccc2c1C=O | inactive: 6.65% | – |
| CCC(/C=C/C(C)C1CCC2C3CC=C4CC(O)CC[C@@]4(C)C3CC[C@@]12C)C(C)C (stereo partly drawn) | inactive: -2.95% | – |
| CCOC(=O)c1cc(C(=O)NC(C)c2ccccc2)c(C)[nH]c1=O (stereo not drawn) | inactive: 9.25% [at 46 µM] | – |
| CN(c1ccccc1)S(=O)(=O)c1ccc(NC(=O)c2ccccc2)cc1 | – | inconclusive: 35.5 µM [falling, single point] |
| O=C(/C=C/c1ccco1)N1CCC(Cc2ccccc2)CC1 | inconclusive: 36.1% [at 46 µM] | – |
| O=C(CNCc1ccc(Cl)cc1)Nc1ccc2c(c1)OCCO2 | inconclusive: 9.4% [at 46 µM] | – |
| COc1ccc(C)cc1N(C)C(=O)c1sc2nc3n(c(=O)c2c1C)CCCCC3 | inactive: 16% [at 46 µM] | – |
| CCOc1ccccc1NC(=O)C1CCCN(S(=O)(=O)c2ccc(OC)c(C)c2)C1 (stereo not drawn) | – | inconclusive: 31.6 µM [fluorescent, single point] |
| COc1ccc(N2CCN(c3cc(C)c4ccccc4n3)CC2)cc1 | inconclusive: -7.23% [at 46 µM] | – |
| Cc1ccc2[nH]c(CSc3nnc(NC(=O)COc4ccccc4F)s3)cc(=O)c2c1 | inconclusive: -21.9% [at 46 µM] | – |
| Cc1c(C(=O)OCCOc2ccccc2)[nH]c2c1C(=O)CCC2 | – | inconclusive: 15.8 µM [fluorescent, single point] |
| Cc1ccc(S(=O)(=O)NNC(=O)c2cccc(O)c2)cc1 | inconclusive: -4.21% [at 46 µM] | – |
| COc1ccc(-n2cc(CNCCCn3ccnc3)c(-c3ccccc3Cl)n2)cc1 | inconclusive: -15.1% [at 46 µM] | – |
| C1CNCCNCCCNCCNC1 | inactive: -9.33% | – |
| CC1(C)NC(=O)N(CCCCOc2ccc3c(c2)CCC3)C1=O | – | inconclusive: 35.5 µM [fluorescent, single point] |
| COc1ccc(C(=O)/C(=C/c2cccs2)c2nc3ccccc3o2)cc1 | – | inconclusive: 22.4 µM [falling, single point] |
| CCc1ccc(CN(Cc2ccco2)C(=O)c2cc(-c3ccc(Cl)cc3)on2)cc1 | inconclusive: 9.44% [at 46 µM] | – |
| CCOc1ncccc1C(=O)OCC(=O)Nc1cc(S(=O)(=O)N2CCOCC2)ccc1C | inconclusive: 2.24% | – |

Grouped by structure, those above with a furan ring, fused or not.

| Structure (SMILES) | ratio change, negative = inhibition | Potency |
| --- | --- | --- |
| O=C(/C=C/c1ccco1)N1CCC(Cc2ccccc2)CC1 | inconclusive: 36.1% [at 46 µM] | – |
| CCc1ccc(CN(Cc2ccco2)C(=O)c2cc(-c3ccc(Cl)cc3)on2)cc1 | inconclusive: 9.44% [at 46 µM] | – |

Remaining list, next part:

| Structure (SMILES) | ratio change, negative = inhibition | Potency |
| --- | --- | --- |
| O=C(N/N=C/c1cccc([N+](=O)[O-])c1)c1cccs1 | inactive: -16.5% | – |
| O=C(Nc1nnc(CSCc2ccc(F)cc2)s1)c1ccc([N+](=O)[O-])cc1 | – | inconclusive: 3.55 µM [fluorescent, full curve] |
| CCN1CCC(N(Cc2ccc(F)cc2)C(=O)Nc2ccc(C)c(F)c2)CC1 | inactive: -0.958% [at 46 µM] | – |
| Cc1cc(=O)[nH]c2nnc(SCc3cccc(C(F)(F)F)c3)n12 | inconclusive: 15% [at 46 µM] | – |
| NC(=O)CCS(=O)(=O)c1ccc(Cl)cc1 | inconclusive: 0.296% [at 46 µM] | – |
| Oc1ccccc1OCCOc1ccccc1OCCOc1ccccc1O | – | inconclusive: 8.91 µM [inhibitor, partial curve] |
| CCOCC(=O)Nc1nc2ccccc2s1 | inactive: -9.56% | – |
| CCOC(=O)c1c(C)[nH]c(C(=O)COC(=O)CNC(=O)c2ccc(Br)cc2)c1C | inconclusive: -9.92% | – |
| O=c1c2ccccc2sn1-c1ccc(S(=O)(=O)N2CCCC2)cc1 | inactive: -2.04% | – |
| CC(=O)Nc1ccc(S(=O)(=O)N2CCC(n3c(C)nc4cccnc43)CC2)cc1 | inactive: 4.35% [at 46 µM] | – |
| O=C(N/N=C/C=C/c1ccc([N+](=O)[O-])cc1)c1cccs1 | inactive: 12.3% | – |
| Cc1c(N(C)CS(=O)(=O)O)c(=O)n(-c2ccccc2)n1C | inconclusive: -2.49% | – |
| COc1ccc(C(=O)NCC(=O)OCc2cc(=O)n3nc(C4CCCCC4)sc3n2)cc1 | inconclusive: -14.4% [at 46 µM] | – |
| Nc1ccc2nc(SCc3cccc(F)c3)sc2c1 | inconclusive: 24.7% [at 9.22 µM] | – |
| COc1ccc(-n2nnnc2SCC(N)=O)cc1 | inactive: 15.1% | – |
| O=C(O)CC(=O)Nc1ccc(Oc2ccc(C(F)(F)F)cn2)c(Cl)c1 | inactive: 22.4% [at 46 µM] | – |
| COc1ccc(S(=O)(=O)Nc2ccccc2-c2nnn(CC(=O)Nc3ccccc3OC)n2)cc1 | – | inconclusive: 5.01 µM [fluorescent, full curve, poor fit] |
| COc1cc(N=c2ssnc2Cl)c(OC)cc1Cl | inconclusive: 12.5% | – |
| COc1ccc(CC(=O)NC2CCCc3ccccc32)cc1 (stereo not drawn) | inactive: -12.8% [at 46 µM] | – |
| COc1ccccc1C(=O)OCC(=O)Nc1ccc(Cl)cn1 | – | inconclusive: 22.4 µM [activator, partial curve, poor fit] |
| COc1ccc(-n2cc3c(-c4cccc(Br)c4)nnc(C)c3n2)cc1 | – | inconclusive: 12.6 µM [falling, partial curve] |

| Structure (SMILES) | ratio change, negative = inhibition | Potency |
| --- | --- | --- |
| O=C1c2cccc3cccc(c23)C(=O)N1c1cccnc1 | inactive: 13.7% | – |
| CCCCCOc1ccc(Br)cc1CSC(=N)N | inconclusive: -22.1% | – |
| COc1cccc(NC(=O)CSc2nnc(Cc3cccn3C)n2-c2ccc(F)cc2)c1 | inactive: -12.4% | – |
| CCN(c1ccccc1)c1ncnc2c1cnn2-c1ccc(OC)cc1 | inactive: -13.9% [at 46 µM] | – |
| Nc1ncnc(Nc2ccc(F)cc2)n1 | inactive: 7.53% | – |
| CC(NCCC(c1ccccc1)c1ccccc1)c1ccccc1 (stereo not drawn) | inconclusive: -30.3% | – |
| Cc1cc(N2CCN(C)CC2)nc2ccc(NC(=O)Nc3ccc(F)cc3)cc12 | inconclusive: -18.7% [at 46 µM] | – |
| CCOC(=O)C1(CCCc2ccccc2)CCN(Cc2cnc(C)s2)CC1 | inconclusive: -8.78% [at 46 µM] | – |
| COc1ccc(/C=C2\SC(=S)N(CCCC(=O)NNC(=O)c3ccccc3O)C2=O)cc1 | inconclusive: -34.4% [at 46 µM] | – |
| COc1ccc(C2C(C#N)=C(N)Oc3c2ccc2cccnc32)cc1OC (stereo not drawn) | inconclusive: 30.5% [at 46 µM] | – |
| CCOC(=O)c1ccc(Oc2nc(SC)nc(N(C)C)n2)cc1 | inactive: -1.14% | – |
| CCOC(=O)c1[nH]c(C)c(CCC(=O)Nc2ccc(Br)c(C)c2)c1C | inconclusive: 7.15% [at 46 µM] | – |
| Cc1ccc(N2CC(NC(=O)C3CC3)CC2=O)cc1C (stereo not drawn) | inconclusive: -5.1% [at 46 µM] | – |
| O=C(COC(=O)c1ccc(Sc2ccccc2)c([N+](=O)[O-])c1)NC1CCS(=O)(=O)C1 (stereo not drawn) | inconclusive: 7.37% | – |
| CCOC(=O)/C(C#N)=C\c1cc(C)n(-c2ccccc2)c1C | inconclusive: 13.8% | – |
| COc1ccccc1NC(=O)CS(=O)(=O)c1cn(CC(=O)N2CCOCC2)c2ccccc12 | inactive: 10.1% [at 9.22 µM] | – |
| Cc1ccc(C)c(-n2c3nc(=O)[nH]c(=O)c-3cc3cc([N+](=O)[O-])ccc32)c1 | – | active: 11.2 µM |
| C=CCNC(=S)Nc1cc(C)ccn1 | – | inconclusive: 14.1 µM [activator, partial curve] |
| O=C(Nc1nnc(CC(c2ccccc2)c2ccccc2)s1)c1ccco1 | inactive: -2.76% | – |
| N#CCSc1nc2cc(C(=O)N3CCC(C(N)=O)CC3)ccc2c2nc3ccccc3n12 | inconclusive: -43.7% | – |
| CCOC(=O)C(NC(C)=O)C(=O)Nc1ccc(OC)cc1 (stereo not drawn) | inconclusive: 15.1% [at 46 µM] | – |

| Structure (SMILES) | ratio change, negative = inhibition | Potency |
| --- | --- | --- |
| O=C(O)c1cc(-c2ccc(Cl)cc2)n(-c2ccc(Cl)cc2)n1 | inconclusive: 16.2% [at 46 µM] | – |
| CCCSC1=C(C#N)C(c2ccc(Cl)cc2Cl)CC(=O)N1 (stereo not drawn) | inconclusive: 3.97% | – |
| Cc1cnc(CNc2ncnc3ccc(-c4ccccc4CN(C)C)cc23)cn1 | inconclusive: 31.9% | – |
| COc1cc(NS(=O)(=O)c2ccc(NC(=S)NC(=O)c3sc4ccccc4c3Cl)cc2)ncn1 | inactive: -6.2% | – |
| O=C(c1ccc(N2C(=O)C3CC=C(Cl)CC3C2=O)cc1)N1CCCCC1 (stereo not drawn) | inactive: 9.08% | – |
| Cc1ccc(NC(=O)c2cc(-c3ccco3)nc3ccccc23)cc1S(=O)(=O)N1CCOCC1 | inactive: 15.2% [at 46 µM] | – |
| CCC(=O)NCCCCCCNC(=O)CC | inactive: 19.2% | – |
| COC(=O)c1ccc2c(=O)n(CC3CCCO3)c(SCC(=O)Nc3ccccc3Cl)nc2c1 (stereo not drawn) | inactive: 0.573% | – |
| Brc1ccc(-c2nnc(-c3ccccc3)c(N3CCSCC3)n2)cc1 | inactive: -3.15% | – |
| O=C(CCN1C(=O)C2C3C=CC(C3)C2C1=O)Oc1ccc2ccccc2c1 (stereo not drawn) | inconclusive: 2.5% [at 46 µM] | – |
| NC(=NCCc1c[nH]c2ccccc12)NS(=O)(=O)c1ccc2ccccc2c1 | inconclusive: -44.2% | – |
| CC1(C)Cc2c(sc3ncnc(NNC(=S)NCc4ccccc4)c23)CO1 | – | inconclusive: 1.41 µM [falling, partial curve] |
| COc1cc(C2C(C(=O)Nc3ccccc3C)=C(C)Nc3nc(SCc4cc(C)ccc4C)nn32)ccc1O (stereo not drawn) | – | inconclusive: 35.5 µM [cytotoxic, single point] |
| CSc1cccc(NC(=O)/C=C/c2ccccc2)c1 | inconclusive: 4.27% [at 0.0737 µM] | – |
| Fc1cccc(C[n+]2csc3ccccc32)c1 | – | inconclusive: 35.5 µM [rising, single point] |
| Cc1ccccc1C(=O)N1CCN(c2ccc(NC(=O)CSc3ccc(Cl)cc3)cc2)CC1 | – | inconclusive: 0.562 µM [inhibitor, full curve, poor fit] |
| CC(C)c1ccc(N2C(=O)N(Cc3cccc([N+](=O)[O-])c3)c3ccccc3S2(=O)=O)cc1 | inactive: 2.16% [at 46 µM] | – |
| CC(=O)c1cccc(NC(=O)COC(=O)c2cccs2)c1 | inconclusive: 6.83% [at 46 µM] | – |
| CC1CCCCN1C(=O)CN1CCSc2ccccc21 (stereo not drawn) | inactive: 11.9% [at 46 µM] | – |
| CCOC(=O)C(Cc1ccccc1)NC(=O)Cn1nnc(-c2ccc(SC)cc2)n1 (stereo not drawn) | inconclusive: -0.299% | – |

Single records (already shown):
O=C(c1ccc(N2C(=O)C3CC=C(Cl)CC3C2=O)cc1)N1CCCCC1 (stereo not drawn) in the list: ratio change, negative = inhibition: inactive: 9.08%
Fc1cccc(C[n+]2csc3ccccc32)c1 in the list: Potency: inconclusive: 35.5 µM [rising, single point]
CC(C)c1ccc(N2C(=O)N(Cc3cccc([N+](=O)[O-])c3)c3ccccc3S2(=O)=O)cc1 in the list: ratio change, negative = inhibition: inactive: 2.16% [at 46 µM]
